Experimental data as given in patent US20060084798.

Chains of the proteins cited; added tags and fusions are not shown. A change or cut given only in a name is not applied to a line headed by its entry. Chains listed by the source or under a name are the forms on record and can include a tag or linker.
UniProt P27540, whole entry: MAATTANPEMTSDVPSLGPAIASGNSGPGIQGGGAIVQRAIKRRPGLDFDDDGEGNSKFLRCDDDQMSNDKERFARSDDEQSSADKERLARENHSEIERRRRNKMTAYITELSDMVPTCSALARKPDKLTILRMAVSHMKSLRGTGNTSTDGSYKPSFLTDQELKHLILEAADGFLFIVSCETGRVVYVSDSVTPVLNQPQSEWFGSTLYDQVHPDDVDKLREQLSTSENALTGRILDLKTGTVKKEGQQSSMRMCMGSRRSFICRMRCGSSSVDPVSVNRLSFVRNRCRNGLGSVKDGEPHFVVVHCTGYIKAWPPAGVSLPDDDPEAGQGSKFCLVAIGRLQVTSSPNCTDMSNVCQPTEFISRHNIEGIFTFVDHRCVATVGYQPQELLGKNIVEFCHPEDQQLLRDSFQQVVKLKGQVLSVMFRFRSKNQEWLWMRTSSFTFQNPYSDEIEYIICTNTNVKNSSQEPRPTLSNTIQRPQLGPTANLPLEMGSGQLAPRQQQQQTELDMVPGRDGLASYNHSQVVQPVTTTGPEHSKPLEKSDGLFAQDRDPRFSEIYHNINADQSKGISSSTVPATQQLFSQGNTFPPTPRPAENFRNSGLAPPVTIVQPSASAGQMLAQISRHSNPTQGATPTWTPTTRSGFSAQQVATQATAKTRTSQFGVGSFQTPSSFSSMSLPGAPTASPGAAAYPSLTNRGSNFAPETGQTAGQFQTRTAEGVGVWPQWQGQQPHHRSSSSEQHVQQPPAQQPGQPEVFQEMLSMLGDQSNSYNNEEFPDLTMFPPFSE
UniProt Q16665: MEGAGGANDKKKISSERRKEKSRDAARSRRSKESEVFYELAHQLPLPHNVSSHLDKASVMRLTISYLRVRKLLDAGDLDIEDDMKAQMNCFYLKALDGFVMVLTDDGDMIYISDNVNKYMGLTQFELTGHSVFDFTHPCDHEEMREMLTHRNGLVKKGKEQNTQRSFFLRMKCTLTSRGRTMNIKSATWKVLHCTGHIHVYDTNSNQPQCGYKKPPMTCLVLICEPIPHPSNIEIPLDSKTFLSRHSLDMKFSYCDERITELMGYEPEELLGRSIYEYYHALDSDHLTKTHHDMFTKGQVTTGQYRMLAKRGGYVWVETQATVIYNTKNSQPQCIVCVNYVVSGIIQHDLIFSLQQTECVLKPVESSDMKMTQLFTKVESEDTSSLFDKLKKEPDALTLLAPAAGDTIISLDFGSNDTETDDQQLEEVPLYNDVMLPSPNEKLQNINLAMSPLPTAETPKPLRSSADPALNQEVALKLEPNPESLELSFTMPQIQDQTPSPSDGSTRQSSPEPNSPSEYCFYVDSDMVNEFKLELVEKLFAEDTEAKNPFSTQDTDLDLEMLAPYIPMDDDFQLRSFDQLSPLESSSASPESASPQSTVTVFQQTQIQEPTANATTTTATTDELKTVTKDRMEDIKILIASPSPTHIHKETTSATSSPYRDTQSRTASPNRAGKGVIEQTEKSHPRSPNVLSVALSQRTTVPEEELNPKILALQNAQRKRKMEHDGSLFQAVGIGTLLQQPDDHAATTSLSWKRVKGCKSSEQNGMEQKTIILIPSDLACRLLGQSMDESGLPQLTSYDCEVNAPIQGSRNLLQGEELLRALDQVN
UniProt Q0VBL6, other isoform, or with tags, fused parts or gaps: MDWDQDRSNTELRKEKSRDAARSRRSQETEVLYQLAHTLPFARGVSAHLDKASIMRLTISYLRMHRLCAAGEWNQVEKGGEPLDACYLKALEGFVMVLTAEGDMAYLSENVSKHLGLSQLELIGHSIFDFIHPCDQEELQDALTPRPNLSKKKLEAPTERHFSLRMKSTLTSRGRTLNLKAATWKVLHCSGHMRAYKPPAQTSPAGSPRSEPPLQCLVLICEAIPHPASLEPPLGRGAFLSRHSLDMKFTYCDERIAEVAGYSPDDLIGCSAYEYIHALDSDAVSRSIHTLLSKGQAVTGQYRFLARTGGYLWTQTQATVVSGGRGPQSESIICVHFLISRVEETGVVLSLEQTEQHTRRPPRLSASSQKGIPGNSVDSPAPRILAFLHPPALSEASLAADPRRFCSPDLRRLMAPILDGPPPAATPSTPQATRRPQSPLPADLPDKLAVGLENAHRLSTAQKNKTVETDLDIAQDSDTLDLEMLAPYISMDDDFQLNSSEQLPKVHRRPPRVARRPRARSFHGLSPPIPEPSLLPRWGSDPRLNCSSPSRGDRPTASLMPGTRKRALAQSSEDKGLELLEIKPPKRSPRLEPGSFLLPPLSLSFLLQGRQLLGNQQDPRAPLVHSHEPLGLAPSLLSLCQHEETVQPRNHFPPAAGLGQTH
UniProt O00327, other isoform, or with tags, fused parts or gaps: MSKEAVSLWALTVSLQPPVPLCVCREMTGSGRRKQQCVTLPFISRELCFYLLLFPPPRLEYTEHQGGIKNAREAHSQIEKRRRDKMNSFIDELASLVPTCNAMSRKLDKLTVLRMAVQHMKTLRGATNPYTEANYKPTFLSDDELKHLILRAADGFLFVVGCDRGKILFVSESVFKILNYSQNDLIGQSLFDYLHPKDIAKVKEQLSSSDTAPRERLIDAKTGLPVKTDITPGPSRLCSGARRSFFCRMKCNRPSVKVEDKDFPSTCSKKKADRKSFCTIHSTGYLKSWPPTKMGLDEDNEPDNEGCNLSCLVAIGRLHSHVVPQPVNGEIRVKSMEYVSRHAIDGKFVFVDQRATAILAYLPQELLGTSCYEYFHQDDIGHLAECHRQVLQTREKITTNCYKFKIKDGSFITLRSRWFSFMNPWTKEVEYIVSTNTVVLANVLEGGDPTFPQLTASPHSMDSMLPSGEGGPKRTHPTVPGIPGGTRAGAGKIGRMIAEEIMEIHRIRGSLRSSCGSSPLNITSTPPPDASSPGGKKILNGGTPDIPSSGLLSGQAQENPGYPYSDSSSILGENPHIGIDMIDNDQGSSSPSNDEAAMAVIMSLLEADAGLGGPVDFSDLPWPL
MOP4/ARNT (transfected) (Homo sapiens), one chain, as listed by the source, chain 1 of 2: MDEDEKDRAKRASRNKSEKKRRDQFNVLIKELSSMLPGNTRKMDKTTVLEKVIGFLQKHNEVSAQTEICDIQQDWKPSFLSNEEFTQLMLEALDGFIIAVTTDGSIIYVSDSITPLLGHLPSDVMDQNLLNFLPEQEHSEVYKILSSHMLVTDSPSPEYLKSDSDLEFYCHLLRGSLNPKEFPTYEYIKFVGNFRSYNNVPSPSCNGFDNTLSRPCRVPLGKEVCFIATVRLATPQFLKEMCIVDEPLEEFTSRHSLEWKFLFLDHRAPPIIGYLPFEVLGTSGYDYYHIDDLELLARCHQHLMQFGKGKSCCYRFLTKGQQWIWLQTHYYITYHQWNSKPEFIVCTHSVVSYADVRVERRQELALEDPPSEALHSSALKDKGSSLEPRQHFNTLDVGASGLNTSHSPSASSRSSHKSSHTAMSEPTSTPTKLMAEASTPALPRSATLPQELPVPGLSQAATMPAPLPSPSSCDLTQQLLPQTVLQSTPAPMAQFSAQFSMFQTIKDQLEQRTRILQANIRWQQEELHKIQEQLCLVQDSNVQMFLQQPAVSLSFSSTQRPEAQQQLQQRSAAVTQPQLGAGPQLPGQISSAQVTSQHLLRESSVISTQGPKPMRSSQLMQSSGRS
MOP4/ARNT (transfected) (Homo sapiens), one chain, as listed by the source, chain 2 of 2: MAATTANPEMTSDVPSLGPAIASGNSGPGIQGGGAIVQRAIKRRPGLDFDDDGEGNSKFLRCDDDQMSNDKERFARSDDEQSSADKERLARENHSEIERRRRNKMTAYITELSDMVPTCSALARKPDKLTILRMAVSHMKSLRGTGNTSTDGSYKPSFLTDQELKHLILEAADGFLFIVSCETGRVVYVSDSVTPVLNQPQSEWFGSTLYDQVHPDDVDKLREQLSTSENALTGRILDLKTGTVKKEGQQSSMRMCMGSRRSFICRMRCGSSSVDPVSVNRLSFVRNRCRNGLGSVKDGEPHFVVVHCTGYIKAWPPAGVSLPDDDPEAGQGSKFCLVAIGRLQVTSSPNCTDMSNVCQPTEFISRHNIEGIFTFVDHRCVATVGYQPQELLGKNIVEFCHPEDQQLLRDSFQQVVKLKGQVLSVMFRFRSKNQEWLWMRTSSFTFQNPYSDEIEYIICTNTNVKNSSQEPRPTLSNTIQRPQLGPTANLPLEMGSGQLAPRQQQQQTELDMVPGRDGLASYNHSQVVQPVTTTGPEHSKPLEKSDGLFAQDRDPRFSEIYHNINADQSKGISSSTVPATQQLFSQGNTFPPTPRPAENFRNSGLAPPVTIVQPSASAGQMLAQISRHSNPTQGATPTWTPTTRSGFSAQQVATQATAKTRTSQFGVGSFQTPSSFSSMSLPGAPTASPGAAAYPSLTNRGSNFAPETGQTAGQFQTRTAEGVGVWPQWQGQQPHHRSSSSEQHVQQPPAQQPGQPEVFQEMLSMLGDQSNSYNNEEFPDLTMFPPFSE
MOP3/MOP4 (transfected) (Homo sapiens), one chain, as listed by the source, chain 2 of 2: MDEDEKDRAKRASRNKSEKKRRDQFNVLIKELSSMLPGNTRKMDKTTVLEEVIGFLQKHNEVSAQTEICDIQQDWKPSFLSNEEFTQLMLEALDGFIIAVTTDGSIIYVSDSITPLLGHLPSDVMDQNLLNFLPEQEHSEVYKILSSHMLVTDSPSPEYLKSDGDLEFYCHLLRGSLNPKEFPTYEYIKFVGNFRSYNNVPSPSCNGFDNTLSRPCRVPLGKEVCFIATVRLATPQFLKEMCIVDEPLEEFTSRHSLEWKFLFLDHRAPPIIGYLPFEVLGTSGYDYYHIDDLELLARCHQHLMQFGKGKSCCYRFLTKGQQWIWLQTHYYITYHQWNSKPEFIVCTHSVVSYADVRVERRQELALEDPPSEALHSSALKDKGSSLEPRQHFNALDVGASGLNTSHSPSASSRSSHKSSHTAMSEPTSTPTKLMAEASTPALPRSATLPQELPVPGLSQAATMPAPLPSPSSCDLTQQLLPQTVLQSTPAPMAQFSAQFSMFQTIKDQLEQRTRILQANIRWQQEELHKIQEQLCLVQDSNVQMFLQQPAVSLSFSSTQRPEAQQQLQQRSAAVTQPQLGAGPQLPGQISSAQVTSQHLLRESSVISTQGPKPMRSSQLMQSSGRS
MOP3/HIF2alpha (transfected) (Homo sapiens), one chain, as listed by the source, chain 2 of 2: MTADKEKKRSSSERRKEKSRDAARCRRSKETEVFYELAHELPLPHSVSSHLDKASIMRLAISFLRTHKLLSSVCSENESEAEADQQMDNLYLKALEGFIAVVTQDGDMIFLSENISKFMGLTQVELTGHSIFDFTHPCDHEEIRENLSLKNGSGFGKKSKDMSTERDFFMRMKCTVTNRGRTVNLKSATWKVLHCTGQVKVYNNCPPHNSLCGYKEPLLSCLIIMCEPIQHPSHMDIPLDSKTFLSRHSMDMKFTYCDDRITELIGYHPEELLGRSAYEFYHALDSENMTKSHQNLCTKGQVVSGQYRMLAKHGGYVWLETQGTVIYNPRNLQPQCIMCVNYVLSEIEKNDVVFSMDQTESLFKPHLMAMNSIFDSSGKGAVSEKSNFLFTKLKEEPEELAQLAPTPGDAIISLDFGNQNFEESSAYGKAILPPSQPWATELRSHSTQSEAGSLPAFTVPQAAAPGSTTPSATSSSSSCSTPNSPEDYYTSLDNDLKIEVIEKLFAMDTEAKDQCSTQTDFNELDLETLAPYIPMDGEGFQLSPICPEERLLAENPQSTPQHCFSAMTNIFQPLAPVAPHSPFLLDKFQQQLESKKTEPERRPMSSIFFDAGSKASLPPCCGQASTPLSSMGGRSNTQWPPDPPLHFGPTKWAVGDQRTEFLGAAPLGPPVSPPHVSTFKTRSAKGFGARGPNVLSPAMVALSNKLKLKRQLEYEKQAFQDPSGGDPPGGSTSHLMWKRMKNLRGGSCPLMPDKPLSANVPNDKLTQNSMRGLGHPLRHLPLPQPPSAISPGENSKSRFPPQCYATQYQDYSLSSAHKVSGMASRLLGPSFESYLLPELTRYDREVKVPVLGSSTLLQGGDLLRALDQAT
MOP3/HIF2alpha (transfected) (Homo sapiens), one chain, as listed by the source, chain 1 of 2: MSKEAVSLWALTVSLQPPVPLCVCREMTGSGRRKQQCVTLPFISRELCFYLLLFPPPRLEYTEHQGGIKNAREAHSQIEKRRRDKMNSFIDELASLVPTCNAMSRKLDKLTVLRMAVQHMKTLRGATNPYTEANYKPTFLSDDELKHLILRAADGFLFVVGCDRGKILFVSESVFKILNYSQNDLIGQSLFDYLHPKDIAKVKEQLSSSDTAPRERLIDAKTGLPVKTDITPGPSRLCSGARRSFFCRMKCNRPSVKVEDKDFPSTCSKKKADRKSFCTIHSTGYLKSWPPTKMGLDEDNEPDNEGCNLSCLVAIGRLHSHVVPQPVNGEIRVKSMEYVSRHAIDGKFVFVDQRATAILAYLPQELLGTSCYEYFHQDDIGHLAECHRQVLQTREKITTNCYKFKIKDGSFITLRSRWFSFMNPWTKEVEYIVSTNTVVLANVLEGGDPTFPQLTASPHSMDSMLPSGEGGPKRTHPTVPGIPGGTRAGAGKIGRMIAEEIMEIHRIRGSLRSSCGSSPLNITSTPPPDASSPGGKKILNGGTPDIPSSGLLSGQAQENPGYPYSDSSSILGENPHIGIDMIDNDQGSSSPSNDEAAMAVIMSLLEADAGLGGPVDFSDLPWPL

How the values were obtained:
[1] = test system: MOP1 (HIF1alpha)/ARNT heterodimer (Homo sapiens); assay: EMSA; conditions: protein translated in vitro
ARNT (Homo sapiens) = ARNT (Homo sapiens) (UniProt P27540); assay: EMSA; conditions: lower than MOP1-ARNT; protein translated in vitro
[2] = target: MOP1 (HIF1alpha) (Homo sapiens) (UniProt Q16665); assay: EMSA; conditions: lower than MOP1-ARNT; protein translated in vitro
[3] = test system: MOP3/HIF1alpha heterodimer (MOP3 isoform with alternative first 57 codons) (Homo sapiens); assay: EMSA; conditions: protein translated in vitro
[4] = target: MOP2 (HIF2alpha) (Homo sapiens) (UniProt Q99814); assay: EMSA; conditions: MOP2 alone; protein translated in vitro; label: 32P
[5] = target: MOP7 (HIF3alpha) (Mus musculus) (UniProt Q0VBL6); assay: EMSA; conditions: MOP7 alone; protein translated in vitro; label: 32P
[6] = test system: MOP3/HIF1alpha (transfected) (Homo sapiens); assay: activity in cells; conditions: COS-1 luciferase; protein in cells; only the site is given
[7] = test system: MOP3/HIF2alpha (transfected) (Homo sapiens); assay: activity in cells; conditions: COS-1 luciferase; protein in cells; only the site is given
[8] = target: MOP3 (isoform with alternative first 57 codons) (Homo sapiens) (UniProt O00327); assay: EMSA; conditions: MOP3 alone; protein translated in vitro
[9] = test system: MOP3/MOP4 (transfected) (Homo sapiens); assay: activity in cells; conditions: COS-1 luciferase; protein in cells; only the site is given
[10] = test system: MOP4/ARNT (transfected) (Homo sapiens); assay: activity in cells; conditions: no activation over control; protein in cells; only the site is given

Does “CATGTG (double strand) [CATGTG non-palindromic E-box (full oligo not printed)]” bind [1]?
Result: no binding

Does “TCGAGCTGGGCAGGTCACGTGGCAAGGC / TCGAGCCTTGCCACGTGACCTGCCCAGC [OL445/OL446 CACGTG E-box]” bind (ARNT (Homo sapiens))?
Result: binds more weakly

Does “TCGAGCTGGGCAGGTCACGTGGCAAGGC / TCGAGCCTTGCCACGTGACCTGCCCAGC [OL445/OL446 CACGTG E-box]” bind [2]?
Result: binds more weakly

Does “GCCCTACGTGTTCC (double strand) [HIF1alpha half site fused to alternative MOP3 half site]” bind ([3]; complex preferred GCCCTACGTGACCC, variant of M13 element)?
Result: binds more weakly

What does the source list for “TCGAGCTGGGCAGGGTACGTGGCAAGGC / TCGAGCCTTGCCACGTACCCTGCCCAGC [OL414/OL415 TACGTG (HRE)]”?
binding result [4]: no binding; binding result [5]: no binding

Which activity on this sequence [6] does the source give for “GATCGGATACGTGACCATTGGTTACGTGTCCATTGGATACGTGACC (double strand) [M13 reporter insert OL1155 (reporter carries six M13 copies)]” here?
Its activity on this sequence is 3.3 fold.

What about the activity on this sequence [7] of the same sequence?
The activity on this sequence was 3.6 fold.

Does “GCCCTACGTGACCC (double strand) [M13 element]” bind [8]?
Result: no binding

Does “GCCCTACGTGACCC (double strand) [M13 element]” bind ([3]; abolished by MOP3 and HIF1alpha antisera)?
Result: binds

With “GATCGGACACGTGACCATTGGTCACGTGTCCATTGGACACGTGACC / GATCGGTCACGTGTCCAATGGACACGTGACCAATGGTCACGTGTCC [3x M34 reporter insert OL1116/OL1117]” as the sequence, how does the activity on this sequence [9] read?
The activity on this sequence was 3.3 fold.

What about the “activity on this sequence” value [10] of the same sequence?
Its value is “not active”.

For part of these data: A negative result means that nothing was seen under these conditions. For part of these data: A weaker result is weaker than the reference pair of the same experiment. For part of these data: The exact form of at least one protein or probe is not confirmed.
